# PubChem BioAssay AID1259308 | NCATS | 2017
# Assay: 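Genes whose loss raises luciferase production in HEK293 cells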 (primary screen)
# System: human HEK293 embryonic kidney cells stably expressing firefly luciferase (HEK-CMV-Luc2-Hygro)
# Reagents: single siRNA against human genes, 0.8 pmol siRNA per well
# Time to read-out: 72 h
# Read-out: 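Reporter luminescence and viable-cell signal on separate replicate plates, given as percent of non-targeting control and median/MAD z-scores, plus per-cell luciferase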
# Direction: total luciferase, z-score and total luciferase, % of control: higher = more reporter protein produced
# Hit rule: 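Active when the median/MAD z-score for overall luciferase is greater than 3; a gene was taken forward for validation with new siRNAs if at least two of its three siRNAs passed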
# Meaning of the calls: active = raised luciferase; inactive = no rise
# The deposit covers about 59,000 reagents; below is an unselected part. Over the whole deposit, about 1,510 (2.6%) are marked active. 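Calls use total luciferase alone and ignore viability, so some active siRNAs may act by altering cell number.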 The numbers tell different reagents against one gene apart. Further read-outs or replicates are left out here.
The first 3 entries as a preview:
Gene,reagent no.,"total luciferase, z-score","total luciferase, % of control",activity call
PEPD (peptidase D),1,2.81,138,inactive
PEPD (peptidase D),2,2.66,135,inactive
PEPD (peptidase D),3,-0.105,79.8,inactive

The listing, from the start:
Gene,reagent no.,"total luciferase, z-score","total luciferase, % of control",activity call
PEPD (peptidase D),1,2.81,138,inactive
PEPD (peptidase D),2,2.66,135,inactive
PEPD (peptidase D),3,-0.105,79.8,inactive
NUTM2G (NUT family member 2G),1,0.243,86.7,inactive
NUTM2G (NUT family member 2G),2,0.0697,83.3,inactive
NUTM2G (NUT family member 2G),3,3.63,154,active
SLF2 (SMC5/6 complex localization factor 2),1,1.04,103,inactive
SLF2 (SMC5/6 complex localization factor 2),2,-0.814,65.7,inactive
SLF2 (SMC5/6 complex localization factor 2),3,1.89,119,inactive
EPCIP (exosomal polycystin 1 interacting protein),1,-0.0357,81.2,inactive
EPCIP (exosomal polycystin 1 interacting protein),2,0.775,97.3,inactive
EPCIP (exosomal polycystin 1 interacting protein),3,0.391,89.7,inactive
SARAF (store-operated calcium entry associated regulatory factor),1,0.12,84.3,inactive
SARAF (store-operated calcium entry associated regulatory factor),2,0.0842,83.6,inactive
SARAF (store-operated calcium entry associated regulatory factor),3,1.4,110,inactive
TF (transferrin),1,-0.565,70.7,inactive
TF (transferrin),2,1.12,104,inactive
TF (transferrin),3,-0.478,72.4,inactive
ENTPD1 (ectonucleoside triphosphate diphosphohydrolase 1),1,-0.711,67.8,inactive
ENTPD1 (ectonucleoside triphosphate diphosphohydrolase 1),2,1.77,117,inactive
ENTPD1 (ectonucleoside triphosphate diphosphohydrolase 1),3,-0.592,70.1,inactive
MPTX1 (mucosal pentraxin 1 (pseudogene)),1,0.00181,81.9,inactive
MPTX1 (mucosal pentraxin 1 (pseudogene)),2,-1.4,54,inactive
MPTX1 (mucosal pentraxin 1 (pseudogene)),3,1.75,117,inactive
